{"source": "paper doi:10.1101/2025.07.15.664877", "molecular_target": "T1, Ste20^RICTOR-GFP (S. pombe) (UniProt Q09743)", "T1 sequence": "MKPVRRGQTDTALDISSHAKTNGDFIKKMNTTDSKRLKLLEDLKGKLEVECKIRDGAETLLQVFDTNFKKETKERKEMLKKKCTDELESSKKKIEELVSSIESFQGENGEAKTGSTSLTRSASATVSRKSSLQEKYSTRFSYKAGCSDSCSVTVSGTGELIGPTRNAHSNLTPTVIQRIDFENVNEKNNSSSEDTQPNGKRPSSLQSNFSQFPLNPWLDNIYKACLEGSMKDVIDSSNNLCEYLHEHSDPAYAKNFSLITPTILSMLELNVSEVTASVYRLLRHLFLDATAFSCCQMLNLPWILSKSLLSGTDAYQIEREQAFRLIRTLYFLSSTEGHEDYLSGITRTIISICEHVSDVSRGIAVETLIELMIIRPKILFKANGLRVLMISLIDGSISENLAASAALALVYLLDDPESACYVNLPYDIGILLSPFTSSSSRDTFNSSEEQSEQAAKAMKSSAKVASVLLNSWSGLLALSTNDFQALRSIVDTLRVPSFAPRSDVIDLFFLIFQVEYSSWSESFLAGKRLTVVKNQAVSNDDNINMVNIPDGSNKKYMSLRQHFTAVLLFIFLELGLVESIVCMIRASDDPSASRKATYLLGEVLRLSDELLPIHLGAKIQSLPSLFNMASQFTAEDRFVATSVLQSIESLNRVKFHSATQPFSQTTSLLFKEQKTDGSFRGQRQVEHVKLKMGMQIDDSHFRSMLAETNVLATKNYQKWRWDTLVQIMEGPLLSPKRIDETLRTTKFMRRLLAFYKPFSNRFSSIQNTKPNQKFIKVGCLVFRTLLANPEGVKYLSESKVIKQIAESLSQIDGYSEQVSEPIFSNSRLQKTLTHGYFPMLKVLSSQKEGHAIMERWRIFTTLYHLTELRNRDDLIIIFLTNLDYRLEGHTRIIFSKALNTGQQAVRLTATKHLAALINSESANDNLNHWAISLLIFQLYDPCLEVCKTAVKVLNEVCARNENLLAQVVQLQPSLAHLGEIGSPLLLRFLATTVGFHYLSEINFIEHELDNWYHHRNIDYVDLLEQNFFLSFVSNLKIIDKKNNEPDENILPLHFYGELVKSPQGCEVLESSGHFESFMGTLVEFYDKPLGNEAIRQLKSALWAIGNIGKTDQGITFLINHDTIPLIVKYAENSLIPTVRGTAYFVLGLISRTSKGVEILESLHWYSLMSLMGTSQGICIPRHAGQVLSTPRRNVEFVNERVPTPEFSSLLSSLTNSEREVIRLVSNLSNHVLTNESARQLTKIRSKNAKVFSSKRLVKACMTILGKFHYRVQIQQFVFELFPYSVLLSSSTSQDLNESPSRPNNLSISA", "experiment": "co-IP", "note": "These are yes or no findings as the source states them, for the method shown. In cells and extracts the contact can be indirect. Some entries that bind do so weakly or less than the wild type. Where a sequence is shown, tags or fusion partners need not be part of it.", "data": [{"binder": "Gad8-HA (enzyme, UniProt Q9P7J8 1-569) MSWKLTKKLKETHLASAIGLNSGGSSFTRGLKNSTLSSTSSRKSSDEKSRKSSEDKRSPQSTVVQPGLLQVTIIEARNLKLPSGHVPANYGVSIDNSLLAPPLSNGSGHARSRSHAWWLPYIVVEFDKNEILVDALNTASLENPCWDYQATFDVSRYSKLSLNIYLRSSSSRSRNGMGNDAFLGGIKLSPSFIVNKLTDEWVPLHGGSGELRVQMLYKPNQSTPLTIDAFELLKVVGKGSFGKVMQVRKRDTSRIYALKTMKKAHIVSRSEVDHTLAERTVLAQVNNPFIVPLKFSFQSPGKLYLVLAFVNGGELFHHLQREGCFDTYRAKFYIAELLVALECLHEFNVIYRDLKPENILLDYTGHIALCDFGLCKLNMAKTDRTNTFCGTPEYLAPELLLGHGYTKVVDWWTLGVLLYEMITGLPPFYDENINEMYRKILQDPLRFPDNIDEKAKDLLSGLLTRAPEKRLGSGGAQEIKNHPFFDDIDWKKLCAKKIQPPFKPSVESAIDTSNFDSEFTSEIPMDSVVADSHLSETVQQRFANWSYQRPTTIDTSDDINTIAPGSVIR", "values": [{"measurement": "binding", "result": "binds"}]}]}
